Source: PubChem BioAssay AID1159506 (NCATS, 2015).

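Luminescence from an EWS-FLI1 target-promoter (NR0B1) reporter, set against a CMV-promoter reporter, two days after silencing single genes in TC32 Ewing sarcoma cells.
Each siRNA was applied at 20 nM.
A z-score of the log NR0B1-over-CMV signal, less the median of siRNAs with the same seed; more negative means a stronger specific loss of the NR0B1 reporter.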

This is part of the screen; most of the strongest results are not listed here.
Sequences are the guide (antisense) strand, without overhang.

UUCUUCUAAAUCUACCACU against XBP1 read seed-corrected z-score -1.09. Result for UUUUGGACGAUAAUCUAGC against FAS was seed-corrected z-score 0.4822. With UGUCCAGCAAGAGAACGGC against JRK the assay gave seed-corrected z-score 0.1224. UGACAUGAAGGUAUAUUCC against ZNF18 read seed-corrected z-score -0.1772. AUCUGUAGCAUGCAGAAGC against NMS read seed-corrected z-score -0.1957. For UUUGGAGCUCCUAGGCUCC against SYNDIG1L the result was seed-corrected z-score 0.2849. Result for UGCACCUUGAUGUAGUUGC against GNAT1 was seed-corrected z-score -0.1484. For UUGACAGUAGGGUUGUUCU against HDGF the result was seed-corrected z-score -0.2896.

For UCCGCUUAGUGAUAAGGGC against LRRC46 the result was seed-corrected z-score 0.4577. With UAACGGCUUCGGGAAUAGG against PLAUR the assay gave seed-corrected z-score -0.598. UAGGGAAAGGCGAAGGUCU against DBX1 read seed-corrected z-score -0.1503. Result for UUAGGUCCGAGUGUUCGCG against LINC01137 was seed-corrected z-score -0.1385. Result for UUAAGAGUUUCUCCUGUUC against TRAF3IP3 was seed-corrected z-score -0.2916. UCAUUUCUACCAGGCAGUG against CLLU1OS read seed-corrected z-score -0.9338. UGUUCUAUUAGGACAUAGC against ZNF572 gave seed-corrected z-score -1.526. With UUCGAGUCCAUCUCCCUCC against LINC00482 the assay gave seed-corrected z-score 0.3774.

With UUCCAAUGCAUAUUUAUCC against PTPN21 the assay gave seed-corrected z-score 0.5056. For UUGGUAAUUCUGACAUUCC against GTF2I the result was seed-corrected z-score 0.1504. For UCCACCUCAGUGUUCAUGU against FOXN4 the result was seed-corrected z-score -0.315. With UGAUUGGUCAGGAUUCAGA against HLA-DRA the assay gave seed-corrected z-score -0.2781. With AUCAAUGCAAUUAUCAUGC against MUC13 the assay gave seed-corrected z-score 1.771. UAGCAUAGUAGAAGUGUGC against PAQR7 read seed-corrected z-score -1.489. UACGGAUAAACAGUAGCAC against VEGFA read seed-corrected z-score -0.2996. Result for AAAGUUUCUAAACUCAUCC against PRKCH was seed-corrected z-score -0.1305.

Result for UCAGUGAUCACUCGAGCUU against RPL13P12 was seed-corrected z-score 0.2199. Result for UUGGGAAUACCGGUACUCU against FOXK1 was seed-corrected z-score 0.4345. Result for UAGUAAACUCAUUGGAUUC against INPP1 was seed-corrected z-score -0.2733. UAUUUUUGUACCCAAGAGC against WDR53 gave seed-corrected z-score 1.088. For UUAUUAAACACCCGGAACU against ITLN2 the result was seed-corrected z-score 0.04128. With UGUUCGGCAGAUAUUAUGG against MBNL1 the assay gave seed-corrected z-score 0.2446. Result for UUCCUUUUCUUGUCGAAGU against NFIA-AS1 was seed-corrected z-score -1.065.

Repeated from the top, 3 entries:

strand,target gene,seed-corrected z-score
UUCUUCUAAAUCUACCACU,XBP1,-1.09
UUUUGGACGAUAAUCUAGC,FAS,0.4822
UGUCCAGCAAGAGAACGGC,JRK,0.1224